Test results: PMC12590881
These are yes or no findings as the source states them, for the method shown. Binding seen in cells or lysates may run through a third protein. Some results given as binding are weak or reduced against the parent protein; the word gives no strength.

Sequences of proteins named here, by UniProt entry; tags and fusion partners are left off.
UniProt Q99623: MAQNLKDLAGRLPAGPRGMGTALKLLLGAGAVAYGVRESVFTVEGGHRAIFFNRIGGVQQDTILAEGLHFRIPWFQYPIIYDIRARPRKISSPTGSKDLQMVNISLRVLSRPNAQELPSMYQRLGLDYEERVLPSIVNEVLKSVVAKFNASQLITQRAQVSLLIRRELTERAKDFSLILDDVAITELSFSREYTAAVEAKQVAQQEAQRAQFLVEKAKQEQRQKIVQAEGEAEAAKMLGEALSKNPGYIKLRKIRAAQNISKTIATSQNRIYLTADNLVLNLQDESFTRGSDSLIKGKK
UniProt P17931: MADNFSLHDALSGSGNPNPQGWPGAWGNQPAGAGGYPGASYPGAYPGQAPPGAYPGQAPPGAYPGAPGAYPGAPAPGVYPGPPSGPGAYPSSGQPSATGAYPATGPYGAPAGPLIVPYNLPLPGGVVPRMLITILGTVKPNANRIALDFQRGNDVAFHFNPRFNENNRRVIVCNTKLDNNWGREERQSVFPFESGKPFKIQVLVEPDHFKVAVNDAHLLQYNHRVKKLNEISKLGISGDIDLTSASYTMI

Assays:
[1] = molecular target: Prohibitin 2 (PHB2) (human (endogenous in HeLa)) (UniProt Q99623); test: proximity ligation; Duolink in situ PLA, HeLa Parkin cells treated with OA, fixed and permeabilised; rabbit anti-LGALS3 and mouse anti-PHB2
[2] = molecular target: Prohibitin 2 (PHB2) (human (endogenous in HeLa)) (UniProt Q99623); test: proximity ligation; Duolink in situ PLA, HeLa Parkin cells treated with DMSO (basal), fixed and permeabilised; rabbit anti-LGALS3 and mouse anti-PHB2

binding [1]: binds
binding [2]: binds weakly
Substance: Galectin-3 (from UniProt P17931 1-250)
